# Measurements: PubChem BioAssay AID504847 (National Center for Advancing Translational Sciences (NCATS), 2011)
# Protein sequences, listed by entry. Tags and fused reporters are not part of them. Lines headed by an entry give the natural chain unless they say otherwise; changes in a name come on top.
# UniProt P11473: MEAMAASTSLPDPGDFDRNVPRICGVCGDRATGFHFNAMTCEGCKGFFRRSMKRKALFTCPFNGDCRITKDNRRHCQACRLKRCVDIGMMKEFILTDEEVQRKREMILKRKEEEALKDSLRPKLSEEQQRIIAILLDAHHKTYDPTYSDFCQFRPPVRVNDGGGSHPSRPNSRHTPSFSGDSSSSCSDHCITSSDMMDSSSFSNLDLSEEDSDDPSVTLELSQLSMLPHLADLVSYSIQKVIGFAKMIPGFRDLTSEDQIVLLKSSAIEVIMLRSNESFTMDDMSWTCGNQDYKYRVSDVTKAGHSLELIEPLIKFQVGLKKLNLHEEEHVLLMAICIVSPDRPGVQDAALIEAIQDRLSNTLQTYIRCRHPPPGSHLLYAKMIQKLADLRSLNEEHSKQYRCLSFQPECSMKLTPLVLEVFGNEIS
# Screen size: about 400,000 compounds; about 3,700 (0.93%) were called active. The inconclusive results got no clear call from the source; some entries with a clear call stand among them for comparison. Calls follow the shape of the dose curve; as a rule, active = well fitted inhibition curve with a large enough effect; inconclusive = small, poorly fitted or top-dose-only effect, or another doubt; inactive = no such curve, though single readings can be large or run the other way. Where the call is inconclusive, the potency comes from a doubtful curve fit.
# Target: Vitamin D3 receptor (Homo sapiens) (UniProt P11473)
# Assay: Inhibitors of the vitamin D receptor (VDR): qHTS
# Conditions: VDR-SRC2-3 peptide fluorescence polarization, 2 h; max response, negative = inhibition: active compounds read low
# Procedure, shortened: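 Signal is fluorescence polarization, reporting how far test compounds block the interaction of VDR with the SRC2-3 coregulator peptide after a 2 h room-temperature incubation.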
# % is scaled to controls: 0 for no effect and ±100 for the full control effect; potency is read from the fitted curve at half-maximal effect.
Structure (SMILES),Potency,"max response, negative = inhibition"
Cc1cccc(NC(=S)/N=C(\N)Nc2nc(C)c3ccccc3n2)c1,"inconclusive: 35.5 µM [inhibitor, partial curve, poor fit]",
COc1ccc2[nH]c3c(c2c1)CCN(C(=O)c1cccc(Cl)c1)C3c1ccc(F)cc1 (centres undefined),"inconclusive: 4.47 µM [inhibitor, partial curve, poor fit]",
Cn1c(=NC(=O)C(C)(C)C)sc2cccc(F)c21,"inconclusive: 31.6 µM [inhibitor, partial curve, poor fit]",
Cc1ccc(-c2c(C(=O)NNC(=S)NCC3CCCO3)csc2C)cc1 (centres undefined),,inactive: -5.93%
CCOC(=O)/C(C#N)=C/c1cn(CCC(=O)O)nc1-c1ccc(OC)cc1,"inconclusive: 89.1 µM [inhibitor, single point]",
COc1ccccc1C(=O)NNC(=O)c1cccc(C)c1,active: 70.8 µM,
COc1ccccc1OCC(=O)NCCSCc1ccccc1Cl,"inconclusive: 50.1 µM [inhibitor, partial curve, poor fit]",
CN(CC(=O)N1CCCCCC1)S(=O)(=O)c1ccc(Br)s1,,inactive: -2.33%
O=c1cc(O)c2sc(Nc3ccc(Cl)c(F)c3)nc2[nH]1,"inconclusive: 56.2 µM [inhibitor, partial curve, poor fit]",
C=CC(=O)N1C/C(=C/c2ccccc2)C(=O)/C(=C\c2ccccc2)C1,"inconclusive: 56.2 µM [inhibitor, partial curve, poor fit]",
COc1ccc(CCC(=O)Nc2cccc(S(=O)(=O)N3CCCCCC3)c2)cc1OC,"inconclusive: 1.58 µM [inhibitor, full curve, poor fit]",
Cc1nnc(N=c2ssnc2Cl)o1,"inconclusive: 3.16 µM [inhibitor, full curve, poor fit]",
CC(NC(=O)c1ccccc1SCC(=O)N1CCCC1)c1ccccc1 (centres undefined),"inconclusive: 89.1 µM [inhibitor, single point]",
CC(=O)Nc1ccc(CN2CCc3c([nH]c4ccccc34)C2C(C)(C)C)cc1 (centres undefined),"inconclusive: 0.631 µM [inhibitor, full curve, poor fit]",
CCOCCCNS(=O)(=O)c1ccc(NC(=O)c2ccc(OC)c([N+](=O)[O-])c2)cc1,"inconclusive: 39.8 µM [inhibitor, single point]",
COc1ccc(C(=S)N2CCN(c3ccccc3Cl)CC2)cc1OC,"inconclusive: 89.1 µM [inhibitor, single point]",
COc1ccccc1N1CCN(CC(=O)c2ccc3ccn(C(C)=O)c3c2)CC1,"inconclusive: 63.1 µM [inhibitor, partial curve, poor fit]",
COc1ccc(-c2noc(CN(C)C(=O)c3ccoc3C)n2)cc1,"inconclusive: 100 µM [inhibitor, partial curve, poor fit]",
O=[N+]([O-])c1ccccc1OCCCN1CCc2ccccc2C1,,inactive: -4.56%
Brc1ccc(C2=Nn3c(Cn4nnc5ccccc54)nnc3SC2)cc1,"inconclusive: 79.4 µM [inhibitor, single point]",
COc1ccc(N2C(=O)[C@@H]3[C@H](C2=O)[C@H]2C=CC=NN2[C@@H]3C(=O)Nc2ccc(Cl)cc2)cc1,"inconclusive: 89.1 µM [inhibitor, single point]",
Cc1cccc(C)c1-n1cccc1/C=C1/C(=N)N2C(=NC1=O)SN=C2S(C)(=O)=O,"inconclusive: 56.2 µM [inhibitor, partial curve, poor fit]",

# Sorted by SMILES length (low to high): 16 of the compounds above
Structure (SMILES),Potency,"max response, negative = inhibition"
Cc1nnc(N=c2ssnc2Cl)o1,"inconclusive: 3.16 µM [inhibitor, full curve, poor fit]",
COc1ccccc1OCC(=O)NCCSCc1ccccc1Cl,"inconclusive: 50.1 µM [inhibitor, partial curve, poor fit]",
COc1ccccc1C(=O)NNC(=O)c1cccc(C)c1,active: 70.8 µM,
Cn1c(=NC(=O)C(C)(C)C)sc2cccc(F)c21,"inconclusive: 31.6 µM [inhibitor, partial curve, poor fit]",
O=[N+]([O-])c1ccccc1OCCCN1CCc2ccccc2C1,,inactive: -4.56%
CN(CC(=O)N1CCCCCC1)S(=O)(=O)c1ccc(Br)s1,,inactive: -2.33%
COc1ccc(-c2noc(CN(C)C(=O)c3ccoc3C)n2)cc1,"inconclusive: 100 µM [inhibitor, partial curve, poor fit]",
Brc1ccc(C2=Nn3c(Cn4nnc5ccccc54)nnc3SC2)cc1,"inconclusive: 79.4 µM [inhibitor, single point]",
Cc1cccc(NC(=S)/N=C(\N)Nc2nc(C)c3ccccc3n2)c1,"inconclusive: 35.5 µM [inhibitor, partial curve, poor fit]",
COc1ccccc1N1CCN(CC(=O)c2ccc3ccn(C(C)=O)c3c2)CC1,"inconclusive: 63.1 µM [inhibitor, partial curve, poor fit]",
C=CC(=O)N1C/C(=C/c2ccccc2)C(=O)/C(=C\c2ccccc2)C1,"inconclusive: 56.2 µM [inhibitor, partial curve, poor fit]",
COc1ccc(CCC(=O)Nc2cccc(S(=O)(=O)N3CCCCCC3)c2)cc1OC,"inconclusive: 1.58 µM [inhibitor, full curve, poor fit]",
COc1ccc2[nH]c3c(c2c1)CCN(C(=O)c1cccc(Cl)c1)C3c1ccc(F)cc1 (centres undefined),"inconclusive: 4.47 µM [inhibitor, partial curve, poor fit]",
Cc1cccc(C)c1-n1cccc1/C=C1/C(=N)N2C(=NC1=O)SN=C2S(C)(=O)=O,"inconclusive: 56.2 µM [inhibitor, partial curve, poor fit]",
CCOCCCNS(=O)(=O)c1ccc(NC(=O)c2ccc(OC)c([N+](=O)[O-])c2)cc1,"inconclusive: 39.8 µM [inhibitor, single point]",
COc1ccc(N2C(=O)[C@@H]3[C@H](C2=O)[C@H]2C=CC=NN2[C@@H]3C(=O)Nc2ccc(Cl)cc2)cc1,"inconclusive: 89.1 µM [inhibitor, single point]",

# An excerpt of these results, with bars between the fields.
Structure (SMILES) | Potency | max response, negative = inhibition
C=CC(=O)N1C/C(=C/c2ccccc2)C(=O)/C(=C\c2ccccc2)C1 | inconclusive: 56.2 µM [inhibitor, partial curve, poor fit] | 
Brc1ccc(C2=Nn3c(Cn4nnc5ccccc54)nnc3SC2)cc1 | inconclusive: 79.4 µM [inhibitor, single point] | 

# Additional compounds:

Structure (SMILES),Potency,"max response, negative = inhibition"
Cc1cccc(N=C2NC(=O)/C(=C/C=C/c3ccco3)S2)c1,"inconclusive: 100 µM [inhibitor, single point]",
C=CCn1nnnc1SCC(=O)Nc1ccc(C(=O)OC)cc1,"inconclusive: 70.8 µM [inhibitor, single point]",
O=C(NNC(=O)C1CCN(Cc2ccc(F)cc2Cl)CC1)Nc1ccc([N+](=O)[O-])cc1,,inactive: 9.97%
N#CC(C#N)=Cc1cccn1-c1ccc(S(N)(=O)=O)cc1,"inconclusive: 50.1 µM [inhibitor, partial curve, poor fit]",
COc1ccc2c(c1)c(C(=O)CN1CCc3ccccc3C1)c(C)n2C,"inconclusive: 89.1 µM [inhibitor, partial curve, poor fit]",
O=S(=O)(/C=C/C=C/S(=O)(=O)c1ccccc1)c1ccccc1,"inconclusive: 79.4 µM [inhibitor, single point]",
CCOc1ccc2cc(/C=C/C(=O)c3ccco3)c(Cl)nc2c1,"inconclusive: 100 µM [inhibitor, single point]",
CCCC(=O)Nc1sc(C)c(C)c1C(=O)Nc1cccc(C)c1,,inactive: -1.12%
Cc1nn(-c2ccccc2)c(Cl)c1/C=C1\SC(=S)N(CCCCCC(=O)O)C1=O,"inconclusive: 70.8 µM [inhibitor, partial curve]",
CC(NC(=S)Nc1ccc(F)cc1)c1ccccc1 (centres undefined),"inconclusive: 79.4 µM [inhibitor, single point]",
COc1ccc(NCC(=O)n2c(C)c(C)c3ccccc32)cc1,"inconclusive: 79.4 µM [inhibitor, partial curve, poor fit]",
CC1O[C@@H](O[C@H](C)CC[C@@H](C)O[C@H]2OC(C)[C@@H](O)C[C@H]2O)C(O)C[C@H]1O (some centres undefined),,inactive: 2.72%
Cc1nc2scc(C)n2c(=O)c1S(=O)(=O)NC(C)c1ccccc1 (centres undefined),"inconclusive: 35.5 µM [inhibitor, partial curve, poor fit]",
COc1ccc(OC)c2cc3ccccc3cc12,"inconclusive: 79.4 µM [inhibitor, partial curve, poor fit]",
COc1cccc(N2CCN(C(=O)c3cc4c(s3)CCCCC4)CC2)c1,,inactive: -26.8%
Cc1nc(SCC(=O)Nc2cc(C)on2)c2c(=O)n(C)c(=O)n(C)c2n1,"inconclusive: 35.5 µM [inhibitor, partial curve, poor fit]",
O=c1[nH]c(Nc2ccccc2Cl)cc2ccccc12,,inactive: 0%
CN(C)c1oc(-c2ccc(Cl)cc2)nc1S(=O)(=O)c1ccccc1,"inconclusive: 50.1 µM [inhibitor, partial curve, poor fit]",
S=C(NNc1ccnc2cc(Cl)ccc12)Nc1ccccc1Cl,"inconclusive: 79.4 µM [inhibitor, partial curve, poor fit]",
O=C(Nc1cccs1)Nc1ccc(Br)cc1F,"inconclusive: 89.1 µM [inhibitor, partial curve, poor fit]",
CCN(CC)c1ccc(C=Nc2ccc(C)cc2C)c(O)c1,,inactive: 1.53%
Cn1c(C(=O)NCCc2ccccc2)cc(=O)n(C)c1=O,"inconclusive: 70.8 µM [inhibitor, single point]",

Structure (SMILES),Potency,"max response, negative = inhibition"
COc1cc2nc(NCc3ccc(C)cc3)n3nc(-c4ccccc4)nc3c2cc1OC,,inactive: -15.7%
COc1ccc(-c2nc(CS(=O)CC(=O)N3CCc4ccccc4C3)c(C)o2)cc1 (centres undefined),"inconclusive: 100 µM [inhibitor, single point]",
CCNC(=O)c1sc(=S)n(-c2ccc(C)cc2)c1N,,inactive: -23.7%
CCOc1ccc(CNC(=O)c2ccccc2NC(=O)C2=CSCCO2)cc1,"inconclusive: 12.6 µM [inhibitor, partial curve, poor fit]",
Cc1cc(C)c(C#N)c(SCC(=O)c2cc(C)n(CCc3ccccc3)c2C)n1,,inactive: 4.73%
Cc1cc(C)n(-c2ccc(C(=O)N3CCN(c4ccccn4)CC3)cc2)n1,,inactive: 0.722%
CCn1c(COc2ccc(OC)cc2)nc2ccccc21,,inactive: 1.51%
O=C(c1cc(-c2ccc(Br)cc2)on1)N1CCc2ccccc2C1,"inconclusive: 7.94 µM [inhibitor, partial curve, poor fit]",
CCOc1ccc(N/C(C)=C/C(=O)c2ccc(C)o2)cc1,,inactive: 10.8%
O=C1CC(c2ccc(O)cc2)Oc2ccccc21 (centres undefined),"inconclusive: 44.7 µM [inhibitor, partial curve]",
CCOc1ccccc1-c1ccc(C(=O)O)s1,"inconclusive: 158 µM [inhibitor, single point]",
Cc1ccc2c(c1C)NC(=O)C21N2CCCC2C(C(=O)c2ccc3ccccc3c2)C12C(=O)Nc1ccccc12 (centres undefined),"inconclusive: 50.1 µM [inhibitor, partial curve, poor fit]",
CCCN(Cc1cc2cc(C)ccc2[nH]c1=O)C(=O)c1ccccn1,"inconclusive: 25.1 µM [inhibitor, partial curve, poor fit]",
CCN1CC=C2C(C#N)=C(N)C(C#N)(C#N)[C@H](c3ccoc3)[C@H]2C1,"inconclusive: 70.8 µM [inhibitor, partial curve]",
CCOc1ccc(NC(=O)CSc2ncc3c(n2)-c2ccccc2N(Cc2ccccc2C)S3(=O)=O)cc1,,inactive: -10.7%
COc1ccc(-n2c(=O)c(CCC(=O)N3CCN(c4ccccc4O)CC3)nc3ccccc32)cc1,"inconclusive: 79.4 µM [inhibitor, single point]",
CN(C(=O)CCc1ccccc1F)C1CCCN(Cc2ccccc2F)C1 (centres undefined),active: 35.5 µM,
COc1ccc(-c2csc(NC(=O)C3CCN(C(=O)c4ccc(F)cc4)CC3)n2)cc1OC,,inactive: -2.07%
Cc1ccc(S(=O)(=O)n2ccc3c2CCCC3=O)cc1,"inconclusive: 10 µM [inhibitor, partial curve, poor fit]",
Cc1cc(O)c(C=O)c2c1C(=O)Oc1c(COC(=O)/C=C/C(=O)O)c(O)c(C(=O)O)c(C)c1O2,active: 6.31 µM,
